From the supplement of paper PMC12819154, “High-throughput peptide-centric local stability assay extends protein–ligand identification to membrane proteins, tissues and bacteria” (Nature Structural & Molecular Biology, 2025)
The list shows a part of the results. Most values lie at the level of the controls, where differences are scatter.

Chains of the proteins cited; added tags and fusions are not shown. Lines headed by an entry give the natural chain unless they say otherwise; changes in a name come on top.
UniProt Q9ULP9: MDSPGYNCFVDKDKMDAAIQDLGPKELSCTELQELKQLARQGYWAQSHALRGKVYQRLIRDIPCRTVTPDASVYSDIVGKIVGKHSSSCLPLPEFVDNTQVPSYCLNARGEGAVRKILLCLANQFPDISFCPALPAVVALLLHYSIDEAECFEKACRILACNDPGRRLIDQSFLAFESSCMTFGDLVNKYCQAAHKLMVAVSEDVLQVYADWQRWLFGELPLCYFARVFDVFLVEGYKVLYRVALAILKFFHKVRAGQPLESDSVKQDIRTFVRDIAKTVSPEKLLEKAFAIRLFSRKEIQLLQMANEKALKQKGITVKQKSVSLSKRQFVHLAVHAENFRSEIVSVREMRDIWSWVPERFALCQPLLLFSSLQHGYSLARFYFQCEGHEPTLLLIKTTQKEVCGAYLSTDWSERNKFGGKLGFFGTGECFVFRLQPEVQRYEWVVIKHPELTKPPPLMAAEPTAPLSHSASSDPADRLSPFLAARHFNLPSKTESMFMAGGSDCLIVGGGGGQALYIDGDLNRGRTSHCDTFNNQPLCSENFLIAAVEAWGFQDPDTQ
UniProt Q9UQ13: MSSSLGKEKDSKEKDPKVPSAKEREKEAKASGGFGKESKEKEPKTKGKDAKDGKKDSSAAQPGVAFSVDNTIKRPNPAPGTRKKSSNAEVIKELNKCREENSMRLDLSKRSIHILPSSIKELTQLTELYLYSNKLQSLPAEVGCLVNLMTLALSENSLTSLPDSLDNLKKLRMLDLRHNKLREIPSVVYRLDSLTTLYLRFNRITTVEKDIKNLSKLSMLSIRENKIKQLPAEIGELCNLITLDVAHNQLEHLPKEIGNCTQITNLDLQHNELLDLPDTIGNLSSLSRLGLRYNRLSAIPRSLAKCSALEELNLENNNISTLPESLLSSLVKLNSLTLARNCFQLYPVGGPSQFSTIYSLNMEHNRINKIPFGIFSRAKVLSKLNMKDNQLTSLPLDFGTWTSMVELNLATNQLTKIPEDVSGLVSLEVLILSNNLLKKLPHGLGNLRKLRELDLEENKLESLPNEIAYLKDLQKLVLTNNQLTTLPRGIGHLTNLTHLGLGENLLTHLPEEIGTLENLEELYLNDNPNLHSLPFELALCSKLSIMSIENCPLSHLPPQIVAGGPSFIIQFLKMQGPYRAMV
UniProt Q9Y248: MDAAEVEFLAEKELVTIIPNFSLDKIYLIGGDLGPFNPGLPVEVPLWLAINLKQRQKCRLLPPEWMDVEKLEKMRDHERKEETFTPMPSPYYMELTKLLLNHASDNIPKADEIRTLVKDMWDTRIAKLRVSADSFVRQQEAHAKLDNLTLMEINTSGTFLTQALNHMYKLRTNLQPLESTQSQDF
UniProt Q9UL03, whole entry: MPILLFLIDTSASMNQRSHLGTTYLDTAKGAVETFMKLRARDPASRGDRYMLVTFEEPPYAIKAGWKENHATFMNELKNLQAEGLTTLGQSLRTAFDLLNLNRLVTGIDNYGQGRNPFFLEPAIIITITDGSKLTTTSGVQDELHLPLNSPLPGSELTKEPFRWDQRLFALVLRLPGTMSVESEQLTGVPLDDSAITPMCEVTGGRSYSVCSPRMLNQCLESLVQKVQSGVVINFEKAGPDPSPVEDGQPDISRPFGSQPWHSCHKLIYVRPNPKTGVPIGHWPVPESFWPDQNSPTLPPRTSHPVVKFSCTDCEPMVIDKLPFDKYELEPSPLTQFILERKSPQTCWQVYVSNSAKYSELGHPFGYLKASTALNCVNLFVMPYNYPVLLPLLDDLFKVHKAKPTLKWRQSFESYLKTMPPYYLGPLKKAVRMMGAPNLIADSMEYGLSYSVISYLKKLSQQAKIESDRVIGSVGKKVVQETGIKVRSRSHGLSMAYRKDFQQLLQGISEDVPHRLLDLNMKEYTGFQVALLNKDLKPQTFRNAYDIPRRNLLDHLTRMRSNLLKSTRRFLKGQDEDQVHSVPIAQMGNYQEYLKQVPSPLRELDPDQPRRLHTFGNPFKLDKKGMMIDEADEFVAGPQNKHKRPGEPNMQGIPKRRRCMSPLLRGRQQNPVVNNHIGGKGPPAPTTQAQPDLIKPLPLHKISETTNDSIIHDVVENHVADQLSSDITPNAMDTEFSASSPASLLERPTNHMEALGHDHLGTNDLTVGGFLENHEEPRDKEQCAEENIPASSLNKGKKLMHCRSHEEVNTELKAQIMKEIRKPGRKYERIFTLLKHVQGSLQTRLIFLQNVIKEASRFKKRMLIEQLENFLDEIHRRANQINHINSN
UniProt Q9ULJ3: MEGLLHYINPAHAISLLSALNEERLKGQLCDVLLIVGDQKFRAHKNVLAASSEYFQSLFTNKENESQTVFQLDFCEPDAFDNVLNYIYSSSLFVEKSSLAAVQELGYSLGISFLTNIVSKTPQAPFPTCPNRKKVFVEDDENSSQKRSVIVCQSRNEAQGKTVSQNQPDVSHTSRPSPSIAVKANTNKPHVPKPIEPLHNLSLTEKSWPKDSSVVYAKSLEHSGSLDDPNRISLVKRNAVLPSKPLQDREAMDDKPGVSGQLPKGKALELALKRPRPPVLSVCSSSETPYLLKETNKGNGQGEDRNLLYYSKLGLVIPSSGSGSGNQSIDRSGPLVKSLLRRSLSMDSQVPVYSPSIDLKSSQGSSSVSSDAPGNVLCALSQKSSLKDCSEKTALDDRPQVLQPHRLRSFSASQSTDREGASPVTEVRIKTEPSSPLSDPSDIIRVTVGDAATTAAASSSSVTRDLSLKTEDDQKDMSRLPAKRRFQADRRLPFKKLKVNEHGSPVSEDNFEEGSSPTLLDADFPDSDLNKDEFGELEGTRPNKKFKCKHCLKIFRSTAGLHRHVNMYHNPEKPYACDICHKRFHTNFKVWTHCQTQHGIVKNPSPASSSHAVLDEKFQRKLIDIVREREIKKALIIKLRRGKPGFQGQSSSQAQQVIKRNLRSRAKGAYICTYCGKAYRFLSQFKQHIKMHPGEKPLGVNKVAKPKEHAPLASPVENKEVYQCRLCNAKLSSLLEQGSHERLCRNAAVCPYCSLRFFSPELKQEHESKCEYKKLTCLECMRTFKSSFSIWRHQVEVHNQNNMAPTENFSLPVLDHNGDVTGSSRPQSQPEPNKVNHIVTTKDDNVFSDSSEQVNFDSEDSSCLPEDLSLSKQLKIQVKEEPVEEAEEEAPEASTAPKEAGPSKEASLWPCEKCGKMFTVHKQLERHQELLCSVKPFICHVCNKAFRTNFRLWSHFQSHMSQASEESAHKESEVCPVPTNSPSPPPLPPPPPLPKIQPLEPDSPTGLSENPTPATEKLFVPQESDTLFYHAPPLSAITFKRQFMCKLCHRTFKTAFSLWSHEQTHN
UniProt Q9UP52: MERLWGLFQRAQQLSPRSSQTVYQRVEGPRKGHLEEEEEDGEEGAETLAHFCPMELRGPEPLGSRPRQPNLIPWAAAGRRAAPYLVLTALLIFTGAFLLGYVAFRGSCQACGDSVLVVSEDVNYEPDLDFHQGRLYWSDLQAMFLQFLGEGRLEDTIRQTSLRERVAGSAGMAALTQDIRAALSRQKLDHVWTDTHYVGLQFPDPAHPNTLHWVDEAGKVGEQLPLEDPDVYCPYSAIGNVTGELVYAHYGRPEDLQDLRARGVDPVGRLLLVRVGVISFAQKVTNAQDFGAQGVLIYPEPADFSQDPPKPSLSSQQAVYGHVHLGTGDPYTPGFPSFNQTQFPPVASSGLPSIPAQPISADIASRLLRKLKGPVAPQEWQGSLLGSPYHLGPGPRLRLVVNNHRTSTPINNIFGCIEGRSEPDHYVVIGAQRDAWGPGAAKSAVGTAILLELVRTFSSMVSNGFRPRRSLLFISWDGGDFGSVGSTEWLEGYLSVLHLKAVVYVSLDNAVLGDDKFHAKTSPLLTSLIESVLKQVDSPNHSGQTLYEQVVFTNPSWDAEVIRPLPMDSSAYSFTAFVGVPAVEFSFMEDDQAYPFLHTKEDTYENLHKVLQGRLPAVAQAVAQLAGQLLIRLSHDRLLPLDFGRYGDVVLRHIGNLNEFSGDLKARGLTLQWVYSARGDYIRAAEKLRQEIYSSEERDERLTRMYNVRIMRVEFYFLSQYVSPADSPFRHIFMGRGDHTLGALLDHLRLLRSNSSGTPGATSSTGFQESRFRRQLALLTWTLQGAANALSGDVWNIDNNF
UniProt Q9UL33, whole entry: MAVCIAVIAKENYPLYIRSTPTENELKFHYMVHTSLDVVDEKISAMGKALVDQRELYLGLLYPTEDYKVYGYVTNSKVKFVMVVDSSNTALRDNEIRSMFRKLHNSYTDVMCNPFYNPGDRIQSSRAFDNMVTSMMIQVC
UniProt Q9Y2X3: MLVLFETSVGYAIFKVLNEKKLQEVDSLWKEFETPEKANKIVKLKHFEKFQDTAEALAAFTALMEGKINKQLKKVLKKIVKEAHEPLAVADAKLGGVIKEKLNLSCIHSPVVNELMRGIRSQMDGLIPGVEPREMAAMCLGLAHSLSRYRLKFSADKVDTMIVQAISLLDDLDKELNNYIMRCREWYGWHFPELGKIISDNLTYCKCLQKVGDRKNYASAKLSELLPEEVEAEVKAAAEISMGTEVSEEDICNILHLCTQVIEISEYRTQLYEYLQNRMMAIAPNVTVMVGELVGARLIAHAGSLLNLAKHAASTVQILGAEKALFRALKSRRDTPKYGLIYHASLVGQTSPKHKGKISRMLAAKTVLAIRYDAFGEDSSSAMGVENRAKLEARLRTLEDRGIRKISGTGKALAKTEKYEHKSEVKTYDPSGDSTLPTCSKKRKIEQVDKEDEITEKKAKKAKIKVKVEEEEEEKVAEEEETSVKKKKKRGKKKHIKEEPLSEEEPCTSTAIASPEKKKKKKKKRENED
UniProt Q9Y296, whole entry: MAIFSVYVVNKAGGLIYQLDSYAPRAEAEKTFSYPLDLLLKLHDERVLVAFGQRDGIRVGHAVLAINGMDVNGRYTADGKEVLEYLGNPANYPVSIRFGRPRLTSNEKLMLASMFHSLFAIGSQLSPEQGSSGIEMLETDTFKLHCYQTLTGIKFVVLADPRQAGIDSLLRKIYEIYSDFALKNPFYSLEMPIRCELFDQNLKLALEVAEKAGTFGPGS
UniProt Q9Y2K9: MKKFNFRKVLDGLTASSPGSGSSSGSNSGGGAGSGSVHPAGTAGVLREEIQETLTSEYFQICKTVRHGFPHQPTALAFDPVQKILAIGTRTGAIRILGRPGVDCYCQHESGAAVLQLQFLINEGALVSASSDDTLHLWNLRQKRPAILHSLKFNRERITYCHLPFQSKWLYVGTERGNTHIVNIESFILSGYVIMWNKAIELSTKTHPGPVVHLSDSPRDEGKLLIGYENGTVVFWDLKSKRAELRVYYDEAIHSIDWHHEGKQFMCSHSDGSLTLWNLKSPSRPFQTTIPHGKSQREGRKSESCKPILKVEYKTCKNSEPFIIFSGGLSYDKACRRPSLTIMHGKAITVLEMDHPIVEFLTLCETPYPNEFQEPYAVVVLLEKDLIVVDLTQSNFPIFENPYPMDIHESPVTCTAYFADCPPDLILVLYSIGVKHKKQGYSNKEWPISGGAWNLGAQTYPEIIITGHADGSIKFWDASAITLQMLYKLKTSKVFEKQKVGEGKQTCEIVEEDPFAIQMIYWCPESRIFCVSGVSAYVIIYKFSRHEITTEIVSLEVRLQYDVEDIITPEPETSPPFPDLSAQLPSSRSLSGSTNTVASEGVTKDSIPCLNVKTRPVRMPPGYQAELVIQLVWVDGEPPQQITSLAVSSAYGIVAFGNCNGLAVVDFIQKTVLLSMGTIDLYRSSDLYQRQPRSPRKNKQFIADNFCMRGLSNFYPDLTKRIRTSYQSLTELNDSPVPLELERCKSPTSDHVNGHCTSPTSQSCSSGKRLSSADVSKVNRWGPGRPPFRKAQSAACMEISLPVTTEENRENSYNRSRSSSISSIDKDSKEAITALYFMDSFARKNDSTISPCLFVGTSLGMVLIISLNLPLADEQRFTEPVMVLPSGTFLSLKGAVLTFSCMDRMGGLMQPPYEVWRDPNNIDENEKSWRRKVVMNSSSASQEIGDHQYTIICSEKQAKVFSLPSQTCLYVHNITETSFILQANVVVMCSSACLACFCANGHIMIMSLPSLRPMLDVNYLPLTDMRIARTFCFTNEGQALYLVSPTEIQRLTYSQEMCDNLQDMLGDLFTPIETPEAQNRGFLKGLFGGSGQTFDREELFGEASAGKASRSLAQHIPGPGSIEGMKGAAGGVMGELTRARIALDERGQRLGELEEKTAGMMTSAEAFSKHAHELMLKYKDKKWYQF
UniProt Q9UNP9: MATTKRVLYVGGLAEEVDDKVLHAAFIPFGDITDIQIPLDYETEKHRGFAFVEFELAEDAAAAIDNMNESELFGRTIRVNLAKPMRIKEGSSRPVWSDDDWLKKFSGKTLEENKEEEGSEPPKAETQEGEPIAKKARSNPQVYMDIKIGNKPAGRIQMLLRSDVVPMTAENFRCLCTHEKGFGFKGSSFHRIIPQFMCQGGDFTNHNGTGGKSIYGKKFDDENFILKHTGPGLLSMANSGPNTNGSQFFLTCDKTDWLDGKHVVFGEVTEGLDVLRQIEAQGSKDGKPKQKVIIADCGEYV

Each target was assayed with CN[C@@H]1C[C@H]2O[C@@](C)([C@@H]1OC)n1c3ccccc3c3c4c(c5c6ccccc6n2c5c31)C(=O)NC4 [staurosporine] (assay: log2 fold change of tryptic peptide abundance, ligand vs vehicle (limited proteolysis) (log2 ratio); higher = more trypsin-susceptible (destabilized)). Conditions: ligand concentration: 20 uM; sample: K562 cleared lysate; digestion: 4 min, 22 C (HT-PELSA RT4min, Orbitrap Astral).
Work on “TBC1D24 (peptide sequence: MDAAIQDLGPK, peptide start residue: 15) (UniProt Q9ULP9)” yielded a log2 fold change of 0.495.
With “SHOC2 (peptide sequence: INKIPFGIFSR, peptide start residue: 367) (UniProt Q9UQ13)” the log2 fold change was 0.494.
“GINS2 (peptide sequence: VSADSFVR, peptide start residue: 130) (UniProt Q9Y248)” was tested, and the log2 fold change was -0.128.
“INTS6 (peptide sequence: HKRPGEPNMQGIPK, peptide start residue: 642) (UniProt Q9UL03)” was tested, and the log2 fold change was 0.381.
“UniProt Q9ULJ3 (peptide sequence: DSSVVYAK, peptide start residue: 211)” showed a log2 fold change of -0.333.
“TFR2 (peptide sequence: LWGLFQR, peptide start residue: 4) (UniProt Q9UP52)” showed a log2 fold change of -0.0657.
“TRAPPC2L (peptide sequence: STPTENELK, peptide start residue: 19) (UniProt Q9UL33)” was tested, and the log2 fold change was 0.0173.
“NOP58 (peptide sequence: MMAIAPNVTVMVGELVGAR, peptide start residue: 279) (UniProt Q9Y2X3)” was tested, and the log2 fold change was -0.644.
Target “TRAPPC4 (peptide sequence: VGHAVLAINGMDVNGR, peptide start residue: 59) (UniProt Q9Y296)” has a log2 fold change of 0.58.
“STXBP5L (peptide sequence: HAHELMLK, peptide start residue: 1170) (UniProt Q9Y2K9)” gave a log2 fold change of 0.358.
With “PPIE (peptide sequence: VNLAKPMR, peptide start residue: 79) (UniProt Q9UNP9)” the log2 fold change was 0.291.
